Test results published in patent US20160251404A1 (Molecular Partners, published 2016).
No constants are given. Whether binding was seen depends on the method and setting. Some results given as binding are weak or reduced against the parent protein; the word gives no strength.

By UniProt entry, the sequences of proteins in these tests, tags left out. Residues count along the entry.
UniProt P14210, residues 32-728: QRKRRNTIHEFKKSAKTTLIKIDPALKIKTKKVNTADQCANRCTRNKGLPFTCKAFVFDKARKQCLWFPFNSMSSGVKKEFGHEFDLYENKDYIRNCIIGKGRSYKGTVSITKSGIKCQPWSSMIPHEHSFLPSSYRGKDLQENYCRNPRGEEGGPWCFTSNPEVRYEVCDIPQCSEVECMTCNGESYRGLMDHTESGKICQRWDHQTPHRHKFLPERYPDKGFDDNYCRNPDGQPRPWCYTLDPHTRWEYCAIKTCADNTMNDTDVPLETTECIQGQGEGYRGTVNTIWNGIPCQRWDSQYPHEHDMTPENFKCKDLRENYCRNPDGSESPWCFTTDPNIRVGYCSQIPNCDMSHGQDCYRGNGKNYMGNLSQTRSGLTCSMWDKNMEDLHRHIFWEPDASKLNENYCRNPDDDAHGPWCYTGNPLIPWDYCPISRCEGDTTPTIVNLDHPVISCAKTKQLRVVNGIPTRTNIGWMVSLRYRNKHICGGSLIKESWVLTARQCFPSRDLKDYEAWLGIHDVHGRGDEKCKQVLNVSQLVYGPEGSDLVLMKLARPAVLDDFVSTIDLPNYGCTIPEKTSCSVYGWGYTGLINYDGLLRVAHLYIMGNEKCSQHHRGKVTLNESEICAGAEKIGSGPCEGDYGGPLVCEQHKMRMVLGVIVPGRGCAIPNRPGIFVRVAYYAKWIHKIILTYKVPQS

Tests used:
[1] = biological target: recombinant human HGF (hepatocyte growth factor) (human) (UniProt P14210); assay: crude E. coli extract receptor competition ELISA (biotinylated HGF, c-Met-Fc on plate)
[2] = biological target: recombinant human HGF (hepatocyte growth factor) (human) (UniProt P14210); assay: competition SPR, human HGF immobilized, 100 nM DARPin injected after DARPin #51
[3] = biological target: recombinant human HGF (hepatocyte growth factor) (human) (UniProt P14210); assay: SPR, human HGF immobilized and first loaded with 100 nM DARPin #51 for 120 s, then 100 nM DARPin #57 injected for 60 s

binding [1]: binds
binding [2]: binds
binding [3]: binds
B1: DARPin #57 (designed binder)
chain: MRGSHHHHHHGSDLGKKLLEAARAGQDDEVRILMANGADVNAHDYLGLTPLHLAASDGHLEIVEVLLKHGADVNAYDYNGLTPLHLAANNGHLEIVEVLLKYGADVNAFDVAGYTPLHLAAYFGHLEIVEVLLKYGADVNAQDKFGKTAFDISIDNGNEDLAEILQKLN
